# Experimental data as given in article PMC7373794.
# These are yes or no findings as the source states them, for the method shown. Binding seen in cells or lysates may run through a third protein. Some entries that bind do so weakly or less than the wild type. Sequences can lack the tags named with a protein.
# T1: ALA10-YFP Cter domain (Arabidopsis thaliana) (UniProt Q9LI83)
# T1 sequence: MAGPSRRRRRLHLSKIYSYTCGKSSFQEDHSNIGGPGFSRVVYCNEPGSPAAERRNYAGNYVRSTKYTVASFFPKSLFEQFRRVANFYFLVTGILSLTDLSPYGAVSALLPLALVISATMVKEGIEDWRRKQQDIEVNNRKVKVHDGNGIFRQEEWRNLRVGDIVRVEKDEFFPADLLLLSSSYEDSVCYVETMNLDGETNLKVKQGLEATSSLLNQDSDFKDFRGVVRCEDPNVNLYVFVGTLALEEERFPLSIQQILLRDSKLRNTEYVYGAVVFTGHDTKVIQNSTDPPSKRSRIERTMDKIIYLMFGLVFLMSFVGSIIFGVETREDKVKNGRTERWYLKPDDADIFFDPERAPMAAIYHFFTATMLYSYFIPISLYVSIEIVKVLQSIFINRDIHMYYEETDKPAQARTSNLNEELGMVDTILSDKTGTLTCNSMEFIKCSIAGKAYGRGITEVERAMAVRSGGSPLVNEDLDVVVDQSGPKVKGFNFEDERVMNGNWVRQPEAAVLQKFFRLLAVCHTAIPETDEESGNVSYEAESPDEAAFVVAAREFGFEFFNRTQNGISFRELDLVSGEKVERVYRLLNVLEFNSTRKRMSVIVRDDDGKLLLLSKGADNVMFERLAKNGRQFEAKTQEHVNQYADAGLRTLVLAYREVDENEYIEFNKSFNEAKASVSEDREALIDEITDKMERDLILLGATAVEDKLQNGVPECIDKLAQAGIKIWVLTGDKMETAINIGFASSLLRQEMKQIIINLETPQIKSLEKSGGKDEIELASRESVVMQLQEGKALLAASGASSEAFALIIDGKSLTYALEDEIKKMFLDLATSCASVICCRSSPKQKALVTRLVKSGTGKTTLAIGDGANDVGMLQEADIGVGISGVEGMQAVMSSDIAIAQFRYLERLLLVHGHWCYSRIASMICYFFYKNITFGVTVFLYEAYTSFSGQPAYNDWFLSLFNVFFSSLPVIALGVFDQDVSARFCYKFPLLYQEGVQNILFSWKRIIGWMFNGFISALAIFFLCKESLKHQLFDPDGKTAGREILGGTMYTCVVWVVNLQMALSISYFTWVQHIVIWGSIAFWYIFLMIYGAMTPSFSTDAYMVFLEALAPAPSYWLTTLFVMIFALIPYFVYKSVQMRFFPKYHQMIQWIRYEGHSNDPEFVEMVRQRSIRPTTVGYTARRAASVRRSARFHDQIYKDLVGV
# T2: ALA10 fused in C-ter with the YFP Nter half (Arabidopsis thaliana) (UniProt Q9LI83)
# T2 sequence: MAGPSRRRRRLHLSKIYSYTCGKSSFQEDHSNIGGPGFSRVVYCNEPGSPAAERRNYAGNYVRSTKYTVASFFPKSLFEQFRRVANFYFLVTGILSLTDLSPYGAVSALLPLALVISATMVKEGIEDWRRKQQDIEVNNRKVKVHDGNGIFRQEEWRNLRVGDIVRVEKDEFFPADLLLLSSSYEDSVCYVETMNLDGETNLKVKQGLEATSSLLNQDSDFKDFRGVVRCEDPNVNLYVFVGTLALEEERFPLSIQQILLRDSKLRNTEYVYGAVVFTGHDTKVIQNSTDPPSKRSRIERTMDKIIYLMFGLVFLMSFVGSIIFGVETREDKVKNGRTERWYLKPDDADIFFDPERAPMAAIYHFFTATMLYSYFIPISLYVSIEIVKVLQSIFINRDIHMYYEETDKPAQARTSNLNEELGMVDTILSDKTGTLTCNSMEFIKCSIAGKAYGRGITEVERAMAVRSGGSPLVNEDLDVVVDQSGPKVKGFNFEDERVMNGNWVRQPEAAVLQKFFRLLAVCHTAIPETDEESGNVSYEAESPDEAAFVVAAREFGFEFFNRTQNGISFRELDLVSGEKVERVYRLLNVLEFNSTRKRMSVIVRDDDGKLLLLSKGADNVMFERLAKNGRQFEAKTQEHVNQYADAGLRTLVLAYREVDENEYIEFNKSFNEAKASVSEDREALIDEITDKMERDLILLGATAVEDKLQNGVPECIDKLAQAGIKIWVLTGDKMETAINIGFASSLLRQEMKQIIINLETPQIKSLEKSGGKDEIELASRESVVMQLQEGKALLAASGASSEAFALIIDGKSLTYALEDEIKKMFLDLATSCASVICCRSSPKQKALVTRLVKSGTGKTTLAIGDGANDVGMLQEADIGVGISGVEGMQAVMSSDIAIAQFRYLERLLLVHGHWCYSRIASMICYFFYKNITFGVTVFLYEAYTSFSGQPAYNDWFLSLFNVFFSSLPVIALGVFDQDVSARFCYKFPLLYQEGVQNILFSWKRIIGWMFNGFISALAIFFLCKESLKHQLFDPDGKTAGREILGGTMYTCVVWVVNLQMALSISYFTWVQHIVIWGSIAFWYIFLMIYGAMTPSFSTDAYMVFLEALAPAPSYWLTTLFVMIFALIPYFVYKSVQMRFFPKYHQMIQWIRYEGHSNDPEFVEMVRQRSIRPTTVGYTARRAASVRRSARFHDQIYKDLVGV
# Tests used:
# [1] = biological target: T1, ALA10-YFP Cter domain (Arabidopsis thaliana); test: split reporter; BiFC in transfected Arabidopsis leaf protoplasts; both proteins fused in C-ter with complementary halves of YFP; confocal microscopy 24 to 48 h after transfection, emission spectra recorded
# [2] = biological target: T2, ALA10 fused in C-ter with the YFP Nter half (Arabidopsis thaliana); test: as above
binding [1],binding [2],Binder
binds,–,"PUB11-YFP Nter domain (protein, UniProt Q8GUG9 1-612) MAGGIVSPASLLDLIADIVEIPLNTGMFKKDCADLTRRVCLLTHLLEEIRDSTPIDSAASSSSENDWWSDLVVGLQAAKRLLSTARFQARDSSDGAAKRISFQFQCVTWKLEKALSNLPYDLYDISDEVGEQVELARSQLRRAMQRYGSLNSNKFSSALSEPMERDGFSNVIKIKAEEKLESVSETLHFGEEEEKQSSPPLRRSSSISLAYYLSKDADTDRLDKMVNKNTDESKKSDKLTIPVDFLCPVSLELMKDPVIVATGQTYERAYIQRWIDCGNLTCPKTQQKLENFTLTPNYVLRSLISRWCAEHNIEQPAGYINGRTKNSGDMSVIRALVQRLSSRSTEDRRNAVSEIRSLSKRSTDNRILIAEAGAIPVLVNLLTSEDVATQENAITCVLNLSIYENNKELIMFAGAVTSIVQVLRAGTMEARENAAATLFSLSLADENKIIIGGSGAIPALVDLLENGTPRGKKDAATALFNLCIYHGNKGRAVRAGIVTALVKMLSDSTRHRMVDEALTILSVLANNQDAKSAIVKANTLPALIGILQTDQTRNRENAAAILLSLCKRDTEKLITIGRLGAVVPLMDLSKNGTERGKRKAISLLELLRKACQ"
–,binds,"PUB11 fused in C-ter with the YFP Cter half (protein, UniProt Q8GUG9 1-612) MAGGIVSPASLLDLIADIVEIPLNTGMFKKDCADLTRRVCLLTHLLEEIRDSTPIDSAASSSSENDWWSDLVVGLQAAKRLLSTARFQARDSSDGAAKRISFQFQCVTWKLEKALSNLPYDLYDISDEVGEQVELARSQLRRAMQRYGSLNSNKFSSALSEPMERDGFSNVIKIKAEEKLESVSETLHFGEEEEKQSSPPLRRSSSISLAYYLSKDADTDRLDKMVNKNTDESKKSDKLTIPVDFLCPVSLELMKDPVIVATGQTYERAYIQRWIDCGNLTCPKTQQKLENFTLTPNYVLRSLISRWCAEHNIEQPAGYINGRTKNSGDMSVIRALVQRLSSRSTEDRRNAVSEIRSLSKRSTDNRILIAEAGAIPVLVNLLTSEDVATQENAITCVLNLSIYENNKELIMFAGAVTSIVQVLRAGTMEARENAAATLFSLSLADENKIIIGGSGAIPALVDLLENGTPRGKKDAATALFNLCIYHGNKGRAVRAGIVTALVKMLSDSTRHRMVDEALTILSVLANNQDAKSAIVKANTLPALIGILQTDQTRNRENAAAILLSLCKRDTEKLITIGRLGAVVPLMDLSKNGTERGKRKAISLLELLRKACQ"
